Values from PubChem BioAssay AID1053208 (Peter MacCallum Cancer Centre, 2014).
The whole screen tested about 17,000 reagents; this is a random part of them. Over the whole deposit, 788 (4.7%) are marked active. 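Calls rest on z-score classes alone; an extra cut-off of viability at most 70% of control was not applied to them.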 A number with no mark means an inactive call. No sequences are given here.

Aim: 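Find knock-downs that sensitise mouse osteosarcoma cells to doxorubicin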 (primary screen)
Cells: mouse osteosarcoma cells, early-passage culture from an engineered mouse model of fibroblastic bone tumour
Knock-down reagent: siRNA pool against mouse genes, 40 nM
Time to read-out: about 120 h (48 h before drug, then 72 h with drug)
Conditions: doxorubicin 100 nM for 72 h, roughly 30-40% inhibitory dose
Read-out: 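Luminescent ATP signal taken as viability with or without 100 nM doxorubicin for 72 h; mean of two wells set against non-targeting siRNA and turned into robust z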
Scale: viability z-score with doxorubicin and doxorubicin viability vs non-targeting: higher = more viable cells under doxorubicin; viability z-score without drug: higher = more viable cells with knock-down alone; z-score of drug to no-drug ratio: higher = less drug sensitisation by knock-down
Active means: 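a pool counts as active when its viability z-score with doxorubicin is -2 or below and its z-score without drug lies between -2 and 2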

gene | combined z-score class | viability z-score with doxorubicin | viability z-score without drug | z-score of drug to no-drug ratio | doxorubicin viability vs non-targeting
H2bc8 (GeneID 319181) | no change with or without drug | 0.22 | 0.17 | 0.22 | 0.96
Tpcn1 (GeneID 252972) | no change with or without drug | 0.45 | -0.51 | 1.01 | 0.98
Asb4 (GeneID 65255) | no change with or without drug | -1.8 | -0.17 | -1.69 | 0.78
Htr3a (GeneID 15561) | no change with or without drug | -0.45 | -1.35 | 0.56 | 0.9
Dnai3 (GeneID 242253) | no change with or without drug | 1.35 | 1.85 | 0.22 | 1.06
Calb2 (GeneID 12308) | no change with or without drug | 0.56 | 0.51 | 0.34 | 0.99
A430010J10Rik (GeneID 319665) | no change with or without drug | -0.45 | -1.52 | 0.79 | 0.9
Grb7 (GeneID 14786) | no change with or without drug | 0.11 | 0 | 0.22 | 0.95
Otoa (GeneID 246190) | high cell count without drug only | 0.22 | 2.19 | -1.01 | 0.96
BC053071 | no change with or without drug | -1.12 | -1.52 | 0 | 0.84
Ndufc1 (GeneID 66377) | no change with or without drug | -0.45 | 0.17 | -0.45 | 0.9
Neurl3 (GeneID 214854) | no change with or without drug | -1.8 | -0.17 | -1.69 | 0.78
Ctsb (GeneID 13030) | no change with or without drug | 0 | -0.84 | 0.67 | 0.94
Tnmd (GeneID 64103) | low cell count with doxorubicin only (active) | -2.02 | -0.84 | -1.57 | 0.76
Epb41l1 (GeneID 13821) | no change with or without drug | -1.12 | -0.34 | -0.9 | 0.84
Fam50a (GeneID 108160) | no change with or without drug | 1.35 | 0 | 1.57 | 1.06
Zfp715 (GeneID 69930) | no change with or without drug | 0 | 0.17 | 0 | 0.94
Rab3gap2 (GeneID 98732) | no change with or without drug | 0.79 | -0.84 | 1.57 | 1.01
Dhx33 (GeneID 216877) | no change with or without drug | 0.79 | 0.34 | 0.67 | 1.01
Igsf21 (GeneID 230868) | no change with or without drug | 1.57 | 0 | 1.8 | 1.08
Serp1 (GeneID 28146) | no change with or without drug | 0.9 | -0.51 | 1.46 | 1.02
Cts7 (GeneID 56092) | no change with or without drug | -0.11 | 0.17 | -0.11 | 0.93
Or8s5 (GeneID 258278) | no change with or without drug | -0.67 | -1.52 | 0.45 | 0.88
Wdr45 (GeneID 54636) | low cell count with doxorubicin only (active) | -2.14 | -1.01 | -1.57 | 0.75
Ybx3 (GeneID 56449) | no change with or without drug | 0.22 | 1.18 | -0.45 | 0.96
Adamts15 (GeneID 235130) | no change with or without drug | -1.01 | -0.17 | -0.9 | 0.85
4930542C12Rik (GeneID 67648) | high cell count without drug only | 0 | 2.7 | -1.46 | 0.94
Elmod1 (GeneID 270162) | no change with or without drug | 0.45 | 0.34 | 0.34 | 0.98
Tmem167b (GeneID 67495) | no change with or without drug | -0.45 | 0 | -0.34 | 0.9
Bmp8b (GeneID 12164) | no change with or without drug | -0.45 | 0.84 | -0.9 | 0.9
Wdr72 (GeneID 546144) | no change with or without drug | 1.12 | 1.52 | 0.22 | 1.04
Duoxa2 (GeneID 66811) | no change with or without drug | 0.22 | 0.17 | 0.22 | 0.96
Wasf1 (GeneID 83767) | no change with or without drug | 0 | 0 | 0.11 | 0.94
Tbx21 (GeneID 57765) | no change with or without drug | 0 | 0.84 | -0.45 | 0.94

Called active, of those listed so far:
gene | combined z-score class | viability z-score with doxorubicin | viability z-score without drug | z-score of drug to no-drug ratio | doxorubicin viability vs non-targeting
Tnmd (GeneID 64103) | low cell count with doxorubicin only (active) | -2.02 | -0.84 | -1.57 | 0.76
Wdr45 (GeneID 54636) | low cell count with doxorubicin only (active) | -2.14 | -1.01 | -1.57 | 0.75
